Taken from: PubChem BioAssay AID1259405 (NCATS, 2018)
The whole screen tested about 50,000 reagents; below is a random part of them. Of all reagents, about 4,000 (8%) got an active call. 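Mouse siRNA library applied to hamster cells; one well for each siRNA.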 A number with no mark means an inactive call. Reagents against one gene are numbered here.

Purpose: 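Silenced genes that increase secreted GFP made by CHO cells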 (primary screen)
Cells: Chinese hamster CHO-K1 ovary cells with stable secreted eGFP expression
Reagents: single siRNA against mouse genes, 0.8 pmol siRNA per well (2 µl of 400 nM stock)
Timing: 3 days
Measurement: 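Percent of the per-plate non-targeting control median for intracellular GFP per well by laser scanning cytometry and for cell viability by ATP luminescence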
Direction: GFP, % of control: higher = more GFP per well, higher productivity; viability (ATP), % of control: higher = more viable cells (more ATP)
Rule for the call: 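a knock-down is called active if GFP reaches 120% or more of non-targeting control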

Tnfrsf23 (tumor necrosis factor receptor superfamily, member 23) #1 — GFP, % of control: 82.4; viability (ATP), % of control: 53.6
Tnfrsf23 (tumor necrosis factor receptor superfamily, member 23) #2 — GFP, % of control: 113; viability (ATP), % of control: 96
Tnfrsf23 (tumor necrosis factor receptor superfamily, member 23) #3 — GFP, % of control: 20.3; viability (ATP), % of control: 42.3
Ftmt (ferritin mitochondrial) #1 — GFP, % of control: 67; viability (ATP), % of control: 70
Ftmt (ferritin mitochondrial) #2 — GFP, % of control: 57; viability (ATP), % of control: 85.9
Ftmt (ferritin mitochondrial) #3 — GFP, % of control: 69.6; viability (ATP), % of control: 82
Nat9 (N-acetyltransferase 9 (GCN5-related, putative)) #1 — GFP, % of control: 77.3; viability (ATP), % of control: 92.7
Nat9 (N-acetyltransferase 9 (GCN5-related, putative)) #2 — GFP, % of control: 125 (active); viability (ATP), % of control: 81.4
Nat9 (N-acetyltransferase 9 (GCN5-related, putative)) #3 — GFP, % of control: 70.5; viability (ATP), % of control: 30.1
Hs6st2 (heparan sulfate 6-O-sulfotransferase 2) #1 — GFP, % of control: 115; viability (ATP), % of control: 80.7
Hs6st2 (heparan sulfate 6-O-sulfotransferase 2) #2 — GFP, % of control: 79.8; viability (ATP), % of control: 68.7
Hs6st2 (heparan sulfate 6-O-sulfotransferase 2) #3 — GFP, % of control: 109; viability (ATP), % of control: 116
Mad2l1bp (MAD2L1 binding protein) #1 — GFP, % of control: 75.5; viability (ATP), % of control: 63.4
Mad2l1bp (MAD2L1 binding protein) #2 — GFP, % of control: 83; viability (ATP), % of control: 79.6
Mad2l1bp (MAD2L1 binding protein) #3 — GFP, % of control: 37; viability (ATP), % of control: 50.6
Or7g22 (olfactory receptor family 7 subfamily G member 22) #1 — GFP, % of control: 172 (active); viability (ATP), % of control: 86.2
Or7g22 (olfactory receptor family 7 subfamily G member 22) #2 — GFP, % of control: 9.42; viability (ATP), % of control: 12.4
Or7g22 (olfactory receptor family 7 subfamily G member 22) #3 — GFP, % of control: 65.5; viability (ATP), % of control: 104
Or5d46 (olfactory receptor family 5 subfamily D member 46) #1 — GFP, % of control: 112; viability (ATP), % of control: 18.2
Or5d46 (olfactory receptor family 5 subfamily D member 46) #2 — GFP, % of control: 117; viability (ATP), % of control: 84
Or5d46 (olfactory receptor family 5 subfamily D member 46) #3 — GFP, % of control: 101; viability (ATP), % of control: 69.9
Glrb (glycine receptor, beta subunit) #1 — GFP, % of control: 97.1; viability (ATP), % of control: 71.9
Glrb (glycine receptor, beta subunit) #2 — GFP, % of control: 43.1; viability (ATP), % of control: 64.1
Glrb (glycine receptor, beta subunit) #3 — GFP, % of control: 38.7; viability (ATP), % of control: 39.4
Catsperb (cation channel sperm associated auxiliary subunit beta) #1 — GFP, % of control: 80.8; viability (ATP), % of control: 93.6
Catsperb (cation channel sperm associated auxiliary subunit beta) #2 — GFP, % of control: 80.9; viability (ATP), % of control: 76.4
Catsperb (cation channel sperm associated auxiliary subunit beta) #3 — GFP, % of control: 92.8; viability (ATP), % of control: 107
Elp3 (elongator acetyltransferase complex subunit 3) #1 — GFP, % of control: 106; viability (ATP), % of control: 105
Elp3 (elongator acetyltransferase complex subunit 3) #2 — GFP, % of control: 85.7; viability (ATP), % of control: 147
Elp3 (elongator acetyltransferase complex subunit 3) #3 — GFP, % of control: 60.3; viability (ATP), % of control: 102
Dnaaf4 (dynein axonemal assembly factor 4) #1 — GFP, % of control: 65.3; viability (ATP), % of control: 69.7
Dnaaf4 (dynein axonemal assembly factor 4) #2 — GFP, % of control: 75.3; viability (ATP), % of control: 54.1
Dnaaf4 (dynein axonemal assembly factor 4) #3 — GFP, % of control: 101; viability (ATP), % of control: 65.6
Ppp1r3a (protein phosphatase 1, regulatory subunit 3A) #1 — GFP, % of control: 70.7; viability (ATP), % of control: 71
Ppp1r3a (protein phosphatase 1, regulatory subunit 3A) #2 — GFP, % of control: 36.6; viability (ATP), % of control: 66.8
Ppp1r3a (protein phosphatase 1, regulatory subunit 3A) #3 — GFP, % of control: 88.5; viability (ATP), % of control: 79.3
Fibin (fin bud initiation factor homolog (zebrafish)) #1 — GFP, % of control: 115; viability (ATP), % of control: 108
Fibin (fin bud initiation factor homolog (zebrafish)) #2 — GFP, % of control: 89.1; viability (ATP), % of control: 77.9
Fibin (fin bud initiation factor homolog (zebrafish)) #3 — GFP, % of control: 176 (active); viability (ATP), % of control: 61.4
Fibin (fin bud initiation factor homolog (zebrafish)) #4 — GFP, % of control: 86.5; viability (ATP), % of control: 86.9
Fibin (fin bud initiation factor homolog (zebrafish)) #5 — GFP, % of control: 89.1; viability (ATP), % of control: 77.9
Fibin (fin bud initiation factor homolog (zebrafish)) #6 — GFP, % of control: 64.5; viability (ATP), % of control: 86.7
